Laboratory results published in US9387135B2, “Absorbent article” (UNICHARM CORPORATION, priority 2012, dated 2016).

Legend:
[1] = Top sheet whiteness, visual evaluation after migration rate test; design: species or system horse; key: VG (Very Good): Virtually no redness of blood remaining, and no clear delineation between areas with and without blood.; G (Good): Slight redness of blood remaining, but difficult to delineate between areas with and without blood.; F (Fair): Slight redness of blood remaining, areas with blood discernible.; P (Poor): Redness of blood completely remaining; conditions: skin contact surface after absorbent body migration rate test
[2] = Absorbent body migration rate; conditions: after second dropping of horse EDTA blood; agent coated about 5 g/m^2

Compound	Top sheet whiteness [1]	Absorbent body migration rate [2]
CCCCCCCCCCCC(=O)OCC(O)CO (centres unmarked) [90-L2 Lauric acid monoglyceride, lauric acid monoglyceride, reference compound]	P	7 s
CC(C)CCCCCCCCCCCCCCCOC(=O)CC(O)C(=O)OCCCCCCCCCCCCCCCC(C)C (centres unmarked) [Diisostearyl malate, reference compound]	F	8 s
CCCCCCCCOC(=O)CCCCC(=O)OCCCCCCCC [Dioctyl adipate]	VG	6 s
CCCCCCCCCCCCOC(=O)CCCCCCCCCCC [ELECTOL WE20, Ester of dodecanoic acid (C12) and dodecyl alcohol (C12)]	VG	5 s
CCCCCCCCCCCCCC(=O)OCCCCCCCCCCCC [ELECTOL WE40, Ester of tetradecanoic acid (C14) and dodecyl alcohol (C12)]	VG	–
CCCCC(CC)C(=O)OCC(C)(C)COC(=O)C(CC)CCCC (centres unmarked) [H-208BRS, Neopentyl glycol di(2-ethylhexanoate)]	VG	5 s
CCCCC(CC)C(=O)OCC(COC(=O)C(CC)CCCC)(COC(=O)C(CC)CCCC)COC(=O)C(CC)CCCC (centres unmarked) [H-408BRS, Pentaerythritol tetra(2-ethylhexanoate)]	VG	–
CCCCC(CC)C(=O)OCC(COC(=O)C(CC)CCCC)OC(=O)C(CC)CCCC (centres unmarked) [PANACET 800B]	VG	3 s
CCCCCCCC(=O)OCC(COC(=O)CCCCCCC)OC(=O)CCCCCCC [PANACET 800]	VG	3 s
CCCCOC(=O)CC(CC(=O)OCCCC)(OC(C)=O)C(=O)OCCCC [Tributyl O-acetylcitrate]	VG	8 s
Caprylic acid diglyceride [Caprylic diglyceride]	–	9 s
Isopropyl citrate [reference compound]	–	5 s
